Our source for the binding signal values is PMC7819943, “Rice protein-binding microarrays: a tool to detect cis-acting elements near promoter regions in rice”.

Chains of the proteins cited; added tags and fusions are not shown.
UniProt Q0JBA9, entry or part of it: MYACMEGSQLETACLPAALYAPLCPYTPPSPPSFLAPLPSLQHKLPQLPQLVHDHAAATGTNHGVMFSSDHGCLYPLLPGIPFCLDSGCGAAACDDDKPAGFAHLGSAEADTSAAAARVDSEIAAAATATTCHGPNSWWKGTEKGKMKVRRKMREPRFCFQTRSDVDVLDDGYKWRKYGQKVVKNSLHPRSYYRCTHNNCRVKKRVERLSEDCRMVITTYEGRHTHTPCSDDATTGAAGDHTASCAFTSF

This is one part of the list.

In the assay the target is OsWRKY34 (Oryza sativa, UniProt Q0JBA9 1-250). Description: protein-binding microarray (RPBM); PBS, 2% BSA, 51.3 ng/ul salmon testes DNA, 50 uM zinc acetate, 200 nM TF, 25 C, 1 h; high values mean tight binding. To be noted: protein: recombinant; tags: N-terminal polyhistidine and DsRed monomer fusion (pET32a); label: CyDye5-dUTP incorporated in the synthesized complementary strand; 3' TTTTT single-stranded linker to array surface; dsDNA, one strand shown. The method in brief: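 The binding signal for each feature is its fluorescence intensity in arbitrary units. An Axon 4000B scanner was used to read a custom Agilent array that had been made double-stranded with Cy5-dUTP primer extension, blocked with 2% BSA, incubated at 25 °C for 1 h with 200 nM protein in PBS, 2% BSA, salmon testes DNA and 50 µM zinc acetate, and washed. The protein was an N-terminal polyhistidine–DsRed transcription factor fusion from E. coli BL21-CodonPlus, purified on Ni–NTA.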
Turning to “AGTCATAGCTAAAATTCGAATTTCATATAGTTTATTTTTTCGGAGTCACCTAGTGCAG”, the binding signal is 8680 fluorescence intensity (a.u.).
As for “CGATCGATCGAGCTCCGCTCCGTCCTTCTCAGTCAGCGCCCGGAGTCACCTAGTGCAG”, the figure is 8290 fluorescence intensity (a.u.); as for “TTTGCATGCAACGTCGATCTCTCTATTTGCATTGCCCTCTCGGAGTCACCTAGTGCAG”, 9450 fluorescence intensity (a.u.).
For “TATATGGGCAAGTTAGCGATATTACTTTCATTTCTTTTATCGGAGTCACCTAGTGCAG”, the binding signal is 8540 fluorescence intensity (a.u.).
As for “CTGAGACCACTCATCTCTCGTTTTTTTCTTTCTTCCTTATCGGAGTCACCTAGTGCAG”, the figure is 9440 fluorescence intensity (a.u.); as for “GGATCAGTTTTCCCAACTATAATTAACTTACTGTATTATTCGGAGTCACCTAGTGCAG”, 10300 fluorescence intensity (a.u.); as for “GCAGACAGAGTAAGTCAAGCCACCAAAGTTGACTGATTGCCGGAGTCACCTAGTGCAG”, 8380 fluorescence intensity (a.u.).
Regarding “CCTTTTCGCCTGCGCTTGGTGAGGGCAGGTCACAGGAATCCGGAGTCACCTAGTGCAG”, the binding signal was 9500 fluorescence intensity (a.u.).
In the case of “CGAGCTGTTCAGGGCTAATCGCCACGTTTCGACGGTAACCCGGAGTCACCTAGTGCAG”, the binding signal is 8850 fluorescence intensity (a.u.).
For the sequence “CTGTTCGTGCCAGATGTGATCTTAGCCGCTTATACCTAATCGGAGTCACCTAGTGCAG”, the binding signal was 8980 fluorescence intensity (a.u.).
Under “CGCCCGCATTTCCTCTCTCTCCGTCGCCGCTGCGCCACCCCGGAGTCACCTAGTGCAG” stands 8310 fluorescence intensity (a.u.); under “CACCTTTGCATTTTGGTTAGCATTCTCTCAAAATATTATCCGGAGTCACCTAGTGCAG”, 11900 fluorescence intensity (a.u.).
Regarding “CTAAAATTTCCTTATGTTTTCTTCTTCTTCTAGTTATGTGCGGAGTCACCTAGTGCAG”, the binding signal is 8800 fluorescence intensity (a.u.).
As for “CTCCAGGGTGGGCTGTCATGCATGTGTTGGTGCGGTGGGACGGAGTCACCTAGTGCAG”, the figure is 14500 fluorescence intensity (a.u.); as for “CTATGATTGGTCAAGTGCTGTTGCTATTTCTCTGCTGATACGGAGTCACCTAGTGCAG”, 10200 fluorescence intensity (a.u.).
“GCTCTGTTCGCTCCAGTTTTCGTCCTGGACACTCATTTTGCGGAGTCACCTAGTGCAG”: the binding signal was 11500 fluorescence intensity (a.u.).
Turning to “GTCCAATACACATATTCTCTACAGCCTCATCGATGTTTTTCGGAGTCACCTAGTGCAG”, the binding signal was 8370 fluorescence intensity (a.u.).
As for “GATCCTACAACTGACAATCTACTCCTTTTGGTCCTGCAGCCGGAGTCACCTAGTGCAG”, the binding signal is 12600 fluorescence intensity (a.u.).
With “CCATCTCTTCCCATGGTGTCATTCTGCTAAAAATTTCATCCGGAGTCACCTAGTGCAG”, the binding signal is 10400 fluorescence intensity (a.u.).
Regarding “CCTCCATGACGCGTCTCACCTCCGCGGCTATCTCCCCGTACGGAGTCACCTAGTGCAG”, the binding signal was 8860 fluorescence intensity (a.u.).
As to “CCTCACCTGACCCCATCTCCGCCGTCCCTGCCATTCGCAGCGGAGTCACCTAGTGCAG”, the binding signal was 8170 fluorescence intensity (a.u.).
Under “TCTCCCTTCAAATCTAGTTTTTTTTTTATTTGATGTTGTTCGGAGTCACCTAGTGCAG” stands 8630 fluorescence intensity (a.u.).
In the case of “ACTGGAGTTGGCATCCTACCAACCTGCACAGCTGAACTGCCGGAGTCACCTAGTGCAG”, the binding signal was 8120 fluorescence intensity (a.u.).
“CCCGGATCCGGCCACGCCGCCCTTTTCCGGCGAGATCCACCGGAGTCACCTAGTGCAG”: the binding signal was 8570 fluorescence intensity (a.u.).
As for “GCTTTCCGTCCACCTGGTCCGACCCAACCAGCTCCGTCTCCGGAGTCACCTAGTGCAG”, the binding signal is 8810 fluorescence intensity (a.u.).
“ATCATTTATTTTATTATGACTTGATTCGTCATCAAATGTTCGGAGTCACCTAGTGCAG”: the binding signal is 8060 fluorescence intensity (a.u.).
Under “TGTTTTCCACGTGTTTCTTCCACAAATCGCTTGGCGCCGCCGGAGTCACCTAGTGCAG” stands 10200 fluorescence intensity (a.u.).
As to “CCCCATTTTCTTTGTTTCTACTTCTCTTTCCCTTTCTTGTCGGAGTCACCTAGTGCAG”, the binding signal is 10700 fluorescence intensity (a.u.).
With “GTTAATGGAAGCGATTTTTTACTGTATGTTGTGCCGACTCCGGAGTCACCTAGTGCAG”, the binding signal was 8610 fluorescence intensity (a.u.).
On to “CCTTTTTTTTTCCGAGTGTGTGGCTCTCAGATGGAGTTAGCGGAGTCACCTAGTGCAG”, for which the binding signal was 8450 fluorescence intensity (a.u.).
On to “ATTCAACAGTCACCACCAGCTAATCCCTTTCAACTTGCCACGGAGTCACCTAGTGCAG”, for which the binding signal was 9840 fluorescence intensity (a.u.).
Regarding “ATTTTTTCCTTCATTATTTGTTCAGCTCTTGCTTCATGCTCGGAGTCACCTAGTGCAG”, the binding signal was 10500 fluorescence intensity (a.u.).
Under “GTTTTTGATTCACCGGGTAGGTAAACATTATTGCATTTCTCGGAGTCACCTAGTGCAG” stands 9000 fluorescence intensity (a.u.); under “AGGAGGTGTTGTTTCTTGCGATCTTGGGTTGATTGATATGCGGAGTCACCTAGTGCAG”, 8460 fluorescence intensity (a.u.).
With “GCTAAACTTGCGATTTCGTCTAGCCGACCTATAATTTTGTCGGAGTCACCTAGTGCAG”, the binding signal was 8820 fluorescence intensity (a.u.).
“GCCGCGCCCGCGTCACCACCGCTACCGCCCGCGCGTCCCTCGGAGTCACCTAGTGCAG”: the binding signal is 8940 fluorescence intensity (a.u.).
Regarding “TTCGCTTTGATGGACGGCTCAGATCGGCTCCTAATCCATCCGGAGTCACCTAGTGCAG”, the binding signal is 9700 fluorescence intensity (a.u.).
As for “TTGCGGCATTGAAGGTGGAGGAGGAGGAGGAGGTGGTGGTCGGAGTCACCTAGTGCAG”, the figure is 8380 fluorescence intensity (a.u.); as for “CGCCTGTGCAGAGTACTCTGCTTTGTACTCTTTTGTTAAGCGGAGTCACCTAGTGCAG”, 8540 fluorescence intensity (a.u.).
As to “CAGATAAAAACACTACATACATATAGCTATCATACGCGATCGGAGTCACCTAGTGCAG”, the binding signal was 8600 fluorescence intensity (a.u.).
“GGCCAGAACGGCCCATGAATAATTCCCTGTGGACCAGGCCCGGAGTCACCTAGTGCAG”: the binding signal was 8070 fluorescence intensity (a.u.).
Regarding “CACCACTCCCAACGCGTGGGCCACATCCGGGCCATCCAATCGGAGTCACCTAGTGCAG”, the binding signal was 8480 fluorescence intensity (a.u.).
With “AATAAACCATGGTGTTTGTATTGGTGTGTTGGTGACTACGCGGAGTCACCTAGTGCAG”, the binding signal is 8260 fluorescence intensity (a.u.).
Consider “TATTATTATTATTTCATTTTTGCTGTTGGGTTGTGAACTACGGAGTCACCTAGTGCAG”, for which the binding signal is 8820 fluorescence intensity (a.u.).
Take “TAGCGCTGGGCTGTCACTTTTTTTTGTGTATGAATTATTTCGGAGTCACCTAGTGCAG”: the binding signal is 9990 fluorescence intensity (a.u.).
As to “GGCTCGTGCACCTGCTCTCGTCTTTTCCACCGCTTTTTTTCGGAGTCACCTAGTGCAG”, the binding signal was 16800 fluorescence intensity (a.u.).
Regarding “CACCCCGCGCCCTAATCTCCGTCACGCCCTTCGCAAGCACCGGAGTCACCTAGTGCAG”, the binding signal is 8590 fluorescence intensity (a.u.).
On to “CCCACCACCACCATCTCCACCTTCGGTTGTCATCTAAATACGGAGTCACCTAGTGCAG”, for which the binding signal is 13300 fluorescence intensity (a.u.).
With “ACGCCCAAGCATATACTGCCATCCGGGCCCCACCCTACACCGGAGTCACCTAGTGCAG”, the binding signal is 9850 fluorescence intensity (a.u.).
Consider “TTTTACTCTTTTACCCTCCGTAGAACCCTACCAAATTGTCCGGAGTCACCTAGTGCAG”, for which the binding signal was 8320 fluorescence intensity (a.u.).
Turning to “AAACTCGACCCCAGCTCATTCTTTGGTCATTTCACTTTTGCGGAGTCACCTAGTGCAG”, the binding signal is 9830 fluorescence intensity (a.u.).
In the case of “GATGTGTAGAACTGTACTTATTTTGGGATGGTGGGAGTATCGGAGTCACCTAGTGCAG”, the binding signal was 10000 fluorescence intensity (a.u.).
On to “AAAATTGCTCTTCGCTATAATGGCCTTGTTTGGATCCTCCCGGAGTCACCTAGTGCAG”, for which the binding signal is 10200 fluorescence intensity (a.u.).
Consider “TTTCCTGTCCTCGCTCGCCATCATGGCCGTATAAAAATGTCGGAGTCACCTAGTGCAG”, for which the binding signal is 10400 fluorescence intensity (a.u.).
